# Primary screen of a compound library

Amino acid sequences for entries named in this document (tags omitted).
UniProt E9BF75, entry or part of it: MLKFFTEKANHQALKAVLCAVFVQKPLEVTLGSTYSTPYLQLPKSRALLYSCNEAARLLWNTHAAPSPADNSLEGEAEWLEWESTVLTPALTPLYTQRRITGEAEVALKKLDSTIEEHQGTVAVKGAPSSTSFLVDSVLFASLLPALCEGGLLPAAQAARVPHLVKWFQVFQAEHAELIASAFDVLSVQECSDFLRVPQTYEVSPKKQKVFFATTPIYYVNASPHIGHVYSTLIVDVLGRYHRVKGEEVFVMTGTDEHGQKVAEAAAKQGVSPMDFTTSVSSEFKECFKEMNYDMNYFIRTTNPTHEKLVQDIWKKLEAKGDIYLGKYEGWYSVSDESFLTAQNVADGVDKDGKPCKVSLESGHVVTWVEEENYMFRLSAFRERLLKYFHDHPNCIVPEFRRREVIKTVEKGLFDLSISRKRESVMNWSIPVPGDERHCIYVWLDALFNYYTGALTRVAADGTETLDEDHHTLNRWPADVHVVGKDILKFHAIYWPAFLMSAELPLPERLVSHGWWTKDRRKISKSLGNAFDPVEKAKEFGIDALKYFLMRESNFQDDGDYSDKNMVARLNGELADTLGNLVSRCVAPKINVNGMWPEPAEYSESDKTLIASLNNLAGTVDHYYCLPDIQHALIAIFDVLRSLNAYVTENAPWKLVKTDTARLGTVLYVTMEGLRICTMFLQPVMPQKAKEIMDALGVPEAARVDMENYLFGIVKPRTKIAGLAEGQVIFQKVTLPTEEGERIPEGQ

All values are in %.
The record does not define 0% and 100%; most values in the screen are far below 50% and negative numbers occur (in some assays of this library far below -100).
This is an unselected part of the compounds tested.
A dash means the value is not listed here; it may have been measured.

LdMetRS: 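Methionyl-tRNA synthetase (putative), Leishmania donovani (UniProt E9BF75). Primary screen of methionyl-tRNA synthetase; the read-out is not stated. The test concentration is not given. Values are per cent inhibition. Size under these conditions: about 68,000 compounds, about 24 of them at 50% or above in at least one test.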
Mtb heat-shock: 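Assay on Mycobacterium tuberculosis, filed only as a heat shock assay from Cornell; the read-out is not stated. The concentration is filed as 10 mM, unlikely as a test dose, so the dose is not known. The record gives no direction; compounds that gave an IC50 in retests scored well above the rest, so higher reads as stronger inhibition. Size under these conditions: about 69,000 compounds, about 930 of them at 50% or above in at least one test.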

Compound | LdMetRS | Mtb heat-shock
CCn1c(O)c(C(C)=O)c2cc(C)ccc21 | 11.05% | 12.02%
CN1C(=O)CN(C(=O)c2ccc(=O)n(C)c2)c2ccccc21 | 20.67% | 3.506%
CCCN1CC2(CCN(c3ncc(F)cn3)CC2)CC1C(=O)O (stereo not drawn) | 12.24% | 3.048%
Cc1ccc(C(CNCc2nccn2C)N2CCOCC2)s1 (stereo not drawn) | 4.945% | -27.15%
CCOCC1CN(Cc2ccc(OC)cc2)Cc2nn(CC3CC3)cc21.O=C(O)C(F)(F)F (stereo not drawn) | - | -23.47%
O=C(NC[C@@]1(COc2cnccn2)C[C@@H](O)[C@@H](O)C1)C1CC1 | -1.504% | -
COc1cc(CN2CCCC2)ccc1Oc1ccc2c(c1)CC(CN)O2 (stereo not drawn) | 5.025% | -19.54%
Cc1ncccc1C(=O)Nc1cccc2c1C(=O)NC2 | 17.47% | 2.812%
O=C(O)C(F)(F)F.[H][C@@]12CCN(Cc3c(C)noc3C)C[C@]1(C(=O)N1CCOCC1)CCO2 | - | -21.88%
OCCN(Cc1ccncc1)CC1(c2ccc(Cl)cc2)CCCC1 | 13.3% | -
CCCN1CCC(NCc2ccncc2)CC1 | - | -14.11%
CCOCCOC(C)C(=O)NCc1cn2cc(Br)ccc2n1 (stereo not drawn) | 10.56% | -7.96%
COCc1ccc(C(=O)N2CCC(c3cc4nccnc4[nH]3)CC2)cc1 | 16.13% | 64.38%
CCOCC1CC2(CCN(C(=O)C3CCSCC3)CC2)CO1 (stereo not drawn) | -0.3484% | -14.69%
Cc1ccc(C2CCCN(C(=O)c3cnn(C)c3)C2)nc1 (stereo not drawn) | 0.5208% | -15.54%
CCc1nc2c(c(NCc3cc(-c4cccnc4)no3)n1)CCNCC2 | 3.2% | -1.871%
Cn1cc(C[C@H]2[C@H](N3CCOCC3)CCN2C2CCOCC2)cn1 | 13.87% | -
Cc1csc(N2CCN(Cc3ccccn3)CC2)n1 | 10.79% | -14.04%
CC(C)C(=O)N1CCN(C(=O)c2cc(Cl)no2)[C@H]2CS(=O)(=O)C[C@H]21 | 3.546% | -
Cc1ccc(NC2CCN(C(=O)c3cccc4c3ccn4C)CC2)nn1 | 19.88% | -17.25%
Cc1nc(C)c2c(n1)CCN(C(=O)C1(C#N)CC1)CC2 | 8.403% | -10.14%
O=C(c1ncncc1Cl)N1CCN(c2ccc(Cl)cc2)CC1 | 20.17% | 9.456%
Cn1cccc1C(=O)N1CCC2(CCCN2c2ncccn2)CC1 | 13.87% | -
CC(=O)NS(=O)(=O)c1ccc(F)c(C(F)(F)F)c1 | 13.2% | 14.2%
CS(=O)(=O)N1CC(c2nc[nH]n2)c2cc(C(=O)NC3CC3)ccc21 (stereo not drawn) | 15.73% | -14.83%
Cc1ccc(CN2CCC3(CC2)OC(C(=O)N(C)C)c2ccccc23)o1.O=C(O)C(F)(F)F (stereo not drawn) | - | -13.64%
COc1cc(CNC(=O)c2cc(Cl)ccc2F)ccn1 | 4.7% | -11.56%
c1ccc(CCN2CCCC2c2ccnc(Nc3cnccn3)n2)cc1 (stereo not drawn) | 16.46% | 57.03%
Cc1cc(NCC(=O)NCC(F)(F)F)nc(-c2ccncc2)n1 | 6.183% | -14.79%
O=C(O)C(F)(F)F.O=C(O)C(F)(F)F.O=C(O)c1cc2c(nc1-c1ccoc1)CCN(CC1CCOC1)CC2 (stereo not drawn) | - | 1.912%
COc1ncc(NS(=O)(=O)c2cccc(C)c2)c(OC)n1 | -1.863% | -27.17%
CCN(CC1CCOCC1)C(=O)Cn1cccc(C(F)(F)F)c1=O | 9.091% | 3.374%
COC[C@@H]1CCC[C@]12CN(Cc1ccco1)CCO2 | 12.97% | -
COCCc1noc(CN2CCCC2Cn2cccn2)n1 (stereo not drawn) | 16.24% | -2.778%
Cn1cc(C(=O)NCCc2csc(-c3ccccc3)n2)ccc1=O | 15.13% | -22.01%
CCC(CCN)n1ccc(C(F)(F)F)n1 (stereo not drawn) | 6.757% | -3.003%
COc1ccc(CC(=O)N2CC[C@@H]3NC(=O)CC[C@@H]32)cc1 | 5.882% | -
N#Cc1c(Cl)nsc1NCc1ccc(N2CCC(CO)CC2)cc1 | 11.91% | -9.119%
COCC(c1cccc(C(F)(F)F)c1)N(C)C(=O)c1ccccn1 (stereo not drawn) | 15.3% | 4.142%
Cc1ccc(CCNc2ncnc3sc4c(c23)CCNC4)o1 | 16.03% | 98.95%
[H][C@@]12C[C@H](O)CCN1C(=O)CN(CCOC)C2=O | - | 8.522%
CCN(CC)C(=O)N1CCN(C(=O)C2CCCc3[nH]ncc32)CC1 (stereo not drawn) | 7.116% | 8.334%
COCC(=O)N1CCC2(COCc3c(C)nc(N(C)C)nc32)C1 (stereo not drawn) | -2.428% | -33.91%
[H][C@]12CN(C(=O)c3ccnn3C)C[C@@]1([H])OCCN(S(C)(=O)=O)C2 | - | 12.43%
Cc1ccc(C(CNC(=O)c2cc(=O)c3ccccc3[nH]2)N(C)C)cc1 (stereo not drawn) | 15.18% | 1.071%
CCC(NS(=O)(=O)c1ccc(C(=O)NC2CC2)cc1)c1ccnn1C (stereo not drawn) | 11.42% | -8.928%
COc1ccc(-c2nnc(CN3CCNC(=O)C3)o2)cc1 | 9.363% | 4.017%
O=C(NCCOc1ccc(Cl)cn1)Nc1cccnc1 | 6.137% | -24.56%
COc1cc(N2CC[C@H](O)[C@@H]2Cc2cnn(C)c2)ncn1 | 14.48% | 7.591%
Cn1nc2c(cc1=O)CN(CCc1nc3ccccc3c(=O)[nH]1)CC2 | 5.419% | -8.178%
[H][C@@]12COC[C@]1(C(=O)NCc1cccs1)CN(C)C2 | - | -13.76%
CC(=O)c1cc(CN2C[C@@H](CN3CCC(O)CC3)[C@@H](CO)C2)n(C)c1 | 10.21% | 21.14%
Cc1ccc(NC2CCN(C(=O)CCCn3ccnc3C)CC2)nn1 | 10.83% | -34.47%
O=C(c1ccn(-c2cccc(F)c2)n1)N1CCN(CC2CC2)CC1 | 13.86% | -0.3672%
CCNC(=O)N1CCC2(C1)c1ccccc1S(=O)(=O)N2CCOC (stereo not drawn) | 19.02% | -9.835%
COC(=O)[C@@H]1CN(C(=O)Nc2ccccc2)CCN1C(C)=O | 8.791% | -8.744%
CCOCC(=O)N(C)c1ccc(F)c(Cl)c1 | 9.409% | 21.28%
COc1ccc(C)cc1NS(=O)(=O)c1ccc(CCNC(C)=O)s1 | 11.04% | 0.5355%
CC(C)C(=O)N1CCC(n2nc(-c3ccco3)ccc2=O)CC1 | -6.771% | 1.271%
Cc1cc(N2CCOCC(Cc3ccc4[nH]ccc4c3)C2)ncn1 (stereo not drawn) | 16.77% | -1.633%
Cc1ccc(OCCC(=O)N2CCC(c3nncn3C)CC2)c(C)c1 | 13.25% | -10.15%
NC(=O)CN1CC(O)c2ccccc2S1(=O)=O (stereo not drawn) | 5.753% | 22.91%
O=C(O)C(F)(F)F.[H][C@@]12CCN(C(=O)c3ccc[nH]3)[C@@]1([H])CC(=O)N2CCN1CCCC1 | - | -37.83%
Cc1cccc(Nc2cc(C)nc(C3CCN(C(C)C)C3)n2)n1.O=CO (stereo not drawn) | - | -16.48%
CC(Cn1ccnc1)NC(=O)NCCN1CCc2ccccc2C1 (stereo not drawn) | 11.59% | -18.59%
COc1ccc(CC(=O)N2CC[C@@H]3CN(C)S(=O)(=O)[C@@H]3CC2)cc1 | 12.09% | -
COCCNC(=O)c1cc2c(nc1O)CC(c1cccs1)CC2=O (stereo not drawn) | 9.61% | -2.573%

8 of the entries, repeated:

| Compound | LdMetRS | Mtb heat-shock |
|---|---|---|
| `CC(C)C(=O)N1CCC(n2nc(-c3ccco3)ccc2=O)CC1` | -6.771% | 1.271% |
| `Cc1ccc(CCNc2ncnc3sc4c(c23)CCNC4)o1` | 16.03% | 98.95% |
| `Cc1ccc(C(CNC(=O)c2cc(=O)c3ccccc3[nH]2)N(C)C)cc1` (stereo not drawn) | 15.18% | 1.071% |
| `Cn1nc2c(cc1=O)CN(CCc1nc3ccccc3c(=O)[nH]1)CC2` | 5.419% | -8.178% |
| `Cc1ccc(NC2CCN(C(=O)CCCn3ccnc3C)CC2)nn1` | 10.83% | -34.47% |
| `O=C(O)C(F)(F)F.O=C(O)C(F)(F)F.O=C(O)c1cc2c(nc1-c1ccoc1)CCN(CC1CCOC1)CC2` (stereo not drawn) | - | 1.912% |
| `CCNC(=O)N1CCC2(C1)c1ccccc1S(=O)(=O)N2CCOC` (stereo not drawn) | 19.02% | -9.835% |
| `Cn1cccc1C(=O)N1CCC2(CCCN2c2ncccn2)CC1` | 13.87% | - |

Measurements from “University of Dundee, Small-Polar-MMV Screening Library” (2021), ChEMBL document CHEMBL3988442.